# Values from PubChem BioAssay AID686937 (Drosophila RNAi Screening Center, 2013)
# Aim: 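Genes whose loss weakens secretory pathway function in fly cells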 (primary screen)
# System: Drosophila S2 cells expressing secreted horseradish peroxidase
# Knock-down reagent: long dsRNA against Drosophila genes
# Timing: about 5.5 days (5 days dsRNA, then 12 h reporter induction)
# Challenge: reporter expression induced after 5 days of dsRNA, read 12 h later; inducer not stated
# Measurement: 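After 5 days of dsRNA and 12 h of reporter induction, medium peroxidase read by chemiluminescence and scored as per-plate z-score; higher values mean more reporter released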
# Scale: z-score: higher = more reporter secreted into medium
# The deposit covers about 23,000 reagents; below is a random part of those that have a named target and a result. 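Reduced-secretion tags in replicate 1 do not always agree with the z-scores; no criterion for assigning the tags was given.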 The numbers tell different reagents against one gene apart. Names joined by + are all predicted targets of the reagent. Not stated in the record: the amount of reagent.
Gene,reagent,"z-score, replicate 1","z-score, replicate 2","phenotype, replicate 1"
PIG-L,1,0.31,0.19,
gNacalpha,1,0.01,0.24,
sut2,1,0.4,0.22,
CG32462 + asRNA:CR43426,1,0.25,0.36,
CG12849,1,0.2,0.29,
Rab21,1,-0.46,-0.6,
Lcp65Af,1,0.32,0.46,
TAF1C-like,1,0.13,0.02,
Dsp1,1,-8.77,-5.28,reduced secretion
CG33648,1,0.6,0.16,
Pgant9,1,0.53,0.26,
Pgant9,2,0.3,0.23,
Pgant9,3,0.14,0.33,
Pgant9,4,0.48,0.47,
Pgant9,5,0.69,0.37,
Pgant9,6,0.64,0.54,
Pgant9,7,-0.43,0.24,
Pgant9,8,0.62,0.55,
Smug,1,-0.03,0.11,
Prosbeta4R1,1,0.13,0.04,
Vsp37A,1,0.29,0.25,

Continued, starting with the last 4 of the part before.
Gene,reagent,"z-score, replicate 1","z-score, replicate 2","phenotype, replicate 1"
Pgant9,8,0.62,0.55,
Smug,1,-0.03,0.11,
Prosbeta4R1,1,0.13,0.04,
Vsp37A,1,0.29,0.25,
CG18605,1,0.39,0.66,
Rassf,1,0.29,0.29,
pic,1,-0.46,-1.34,
Sry-beta,1,0.05,0.25,
ranshi,1,0.12,0.28,
CG17472,1,0.25,0.43,
insb,1,0.38,0.41,
blo,1,0.46,0.41,
Prp40,1,0.58,0.51,
CG13229,1,0.31,0.55,
Scgdelta,1,0.27,0.3,
CG13705,1,0.41,0.27,
CG13705,2,-0.08,-0.64,
